Source: patent US20080200369A1 (SANFORD BURNHAM MEDICAL RESEARCH INSTITUTE, published 2008)
These are yes or no findings as the source states them, for the method shown. In cells and extracts the contact can be indirect. Some entries that bind do so weakly or less than the wild type.

Sequences of proteins named here, by UniProt entry; tags and fusion partners are left off. A change or cut given only in a name is not applied to a line headed by its entry. Residues count along the entry.
UniProt Q15303: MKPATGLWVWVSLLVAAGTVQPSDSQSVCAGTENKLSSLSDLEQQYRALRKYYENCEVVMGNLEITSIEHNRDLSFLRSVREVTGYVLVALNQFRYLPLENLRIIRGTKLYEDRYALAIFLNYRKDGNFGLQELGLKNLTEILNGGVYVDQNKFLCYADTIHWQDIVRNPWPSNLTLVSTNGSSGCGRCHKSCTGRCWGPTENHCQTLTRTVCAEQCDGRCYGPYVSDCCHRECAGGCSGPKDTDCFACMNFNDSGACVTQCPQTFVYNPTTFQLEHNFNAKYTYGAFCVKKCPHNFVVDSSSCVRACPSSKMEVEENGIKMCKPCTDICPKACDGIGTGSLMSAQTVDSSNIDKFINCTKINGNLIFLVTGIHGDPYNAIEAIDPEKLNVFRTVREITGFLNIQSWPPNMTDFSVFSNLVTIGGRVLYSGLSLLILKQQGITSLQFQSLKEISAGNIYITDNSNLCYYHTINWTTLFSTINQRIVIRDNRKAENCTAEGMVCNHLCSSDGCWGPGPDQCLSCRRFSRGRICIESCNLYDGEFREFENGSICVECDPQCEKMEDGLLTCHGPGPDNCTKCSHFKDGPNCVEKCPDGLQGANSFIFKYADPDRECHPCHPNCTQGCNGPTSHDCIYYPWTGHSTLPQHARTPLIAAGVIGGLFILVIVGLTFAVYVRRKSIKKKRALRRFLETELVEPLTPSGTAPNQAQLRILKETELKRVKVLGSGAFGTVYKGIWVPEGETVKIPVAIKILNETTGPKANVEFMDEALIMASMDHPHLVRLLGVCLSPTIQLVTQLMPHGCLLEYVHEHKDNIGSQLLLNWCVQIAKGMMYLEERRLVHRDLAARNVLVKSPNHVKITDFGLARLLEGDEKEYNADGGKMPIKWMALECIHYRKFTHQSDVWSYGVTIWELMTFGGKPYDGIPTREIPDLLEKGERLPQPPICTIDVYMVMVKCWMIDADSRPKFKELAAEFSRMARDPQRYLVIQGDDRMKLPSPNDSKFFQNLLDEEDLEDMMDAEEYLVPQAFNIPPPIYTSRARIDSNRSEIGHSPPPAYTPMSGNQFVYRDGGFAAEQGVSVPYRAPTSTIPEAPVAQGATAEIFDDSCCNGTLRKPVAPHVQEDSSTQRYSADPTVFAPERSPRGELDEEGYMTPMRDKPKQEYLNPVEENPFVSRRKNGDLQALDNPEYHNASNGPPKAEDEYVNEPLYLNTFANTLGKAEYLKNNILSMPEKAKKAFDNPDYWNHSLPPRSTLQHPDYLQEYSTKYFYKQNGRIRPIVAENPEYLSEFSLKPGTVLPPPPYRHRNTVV
ErbB4: residues 26-1308 of Q15303
GST-ErbB4 fusion protein (cytoplasmic domain of human ErbB4): residues 676-1308 of Q15303

What was measured:
[1] = molecular target: GST-ErbB4 fusion protein (cytoplasmic domain of human ErbB4) (human) (UniProt Q15303); assay: GST pull-down of in vitro translated [^35S]-bystin on glutathione beads, autoradiography (FIG. 7A)
trophinin (human) = molecular target: T1, trophinin (human) (UniProt Q12816); assay: co-immunoprecipitation and confocal immunofluorescence co-localization in HT-H cells (FIG. 7C, FIG. 8)
T1 sequence (looked up): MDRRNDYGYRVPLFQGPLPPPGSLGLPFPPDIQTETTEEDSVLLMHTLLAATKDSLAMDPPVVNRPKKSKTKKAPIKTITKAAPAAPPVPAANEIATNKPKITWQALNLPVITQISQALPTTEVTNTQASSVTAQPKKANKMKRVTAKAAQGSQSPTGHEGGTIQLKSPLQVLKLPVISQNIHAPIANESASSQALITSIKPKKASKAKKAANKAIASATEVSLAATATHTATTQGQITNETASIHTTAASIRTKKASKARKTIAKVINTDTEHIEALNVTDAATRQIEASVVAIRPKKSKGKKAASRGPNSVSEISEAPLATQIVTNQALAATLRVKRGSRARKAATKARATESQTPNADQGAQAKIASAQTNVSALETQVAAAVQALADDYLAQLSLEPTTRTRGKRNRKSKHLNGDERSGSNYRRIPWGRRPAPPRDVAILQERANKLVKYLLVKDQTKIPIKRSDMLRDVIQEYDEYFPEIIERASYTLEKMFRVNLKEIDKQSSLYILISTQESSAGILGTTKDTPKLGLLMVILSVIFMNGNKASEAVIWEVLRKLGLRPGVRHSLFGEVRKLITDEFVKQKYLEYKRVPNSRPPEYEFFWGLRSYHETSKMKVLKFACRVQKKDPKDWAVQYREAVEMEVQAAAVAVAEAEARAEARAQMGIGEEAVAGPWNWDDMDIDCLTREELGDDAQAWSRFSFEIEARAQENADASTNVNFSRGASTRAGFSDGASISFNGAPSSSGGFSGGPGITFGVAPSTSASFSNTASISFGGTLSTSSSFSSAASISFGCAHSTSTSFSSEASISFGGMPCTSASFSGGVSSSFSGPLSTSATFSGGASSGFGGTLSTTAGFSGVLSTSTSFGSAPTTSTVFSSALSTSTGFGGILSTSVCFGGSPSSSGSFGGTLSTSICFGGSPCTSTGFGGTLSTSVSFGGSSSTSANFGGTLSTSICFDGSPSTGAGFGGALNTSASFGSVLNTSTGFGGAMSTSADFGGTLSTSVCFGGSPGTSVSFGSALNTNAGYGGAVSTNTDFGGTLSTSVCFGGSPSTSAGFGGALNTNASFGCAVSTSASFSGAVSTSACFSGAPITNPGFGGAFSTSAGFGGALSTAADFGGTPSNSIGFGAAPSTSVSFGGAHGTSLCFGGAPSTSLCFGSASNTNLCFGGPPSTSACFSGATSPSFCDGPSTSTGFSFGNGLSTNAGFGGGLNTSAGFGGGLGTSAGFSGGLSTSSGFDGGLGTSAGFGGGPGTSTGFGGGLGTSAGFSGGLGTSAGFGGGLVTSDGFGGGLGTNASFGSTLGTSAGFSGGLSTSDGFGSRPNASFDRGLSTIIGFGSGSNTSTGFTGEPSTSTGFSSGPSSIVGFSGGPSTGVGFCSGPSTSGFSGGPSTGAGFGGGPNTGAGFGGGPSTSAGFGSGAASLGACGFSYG

ErbB4 (human) [2] = molecular target: ErbB4 (human) (UniProt Q15303); assay: as above
ErbB4 (human) [3] = molecular target: ErbB4 (human) (UniProt Q15303); assay: co-immunoprecipitation from HT-H cells with anti-ErbB4 antibody, Western blot (FIG. 7C)
ErbB4 (human) [4] = molecular target: ErbB4 (human) (UniProt Q15303); assay: co-immunoprecipitation from HT-H cell lysates with anti-ErbB4 antibody, Western blot (FIG. 7C)

B1: [^35S]-bystin (protein, UniProt Q13895 1-437, looked up)
chain: MPKFKAARGVGGQEKHAPLADQILAGNAVRAGVREKRRGRGTGEAEEEYVGPRLSRRILQQARQQQEELEAEHGTGDKPAAPRERTTRLGPRMPQDGSDDEDEEWPTLEKAATMTAAGHHAEVVVDPEDERAIEMFMNKNPPARRTLADIIMEKLTEKQTEVETVMSEVSGFPMPQLDPRVLEVYRGVREVLSKYRSGKLPKAFKIIPALSNWEQILYVTEPEAWTAAAMYQATRIFASNLKERMAQRFYNLVLLPRVRDDVAEYKRLNFHLYMALKKALFKPGAWFKGILIPLCESGTCTLREAIIVGSIITKCSIPVLHSSAAMLKIAEMEYSGANSIFLRLLLDKKYALPYRVLDALVFHFLGFRTEKRELPVLWHQCLLTLVQRYKADLATDQKEALLELLRLQPHPQLSPEIRRELQSAVPRDVEDVPITVE
modifications: [^35S]-methionine labeled
binding [1]: binds

B2: bystin (protein, human, UniProt Q13895 1-437, looked up)
chain: B1 chain
binding (trophinin (human)): binds | binding (ErbB4 (human) [2]): binds | binding (ErbB4 (human) [3]): binds | binding (ErbB4 (human) [4]): binds
